Source: PubChem BioAssay (EPA / NIEHS)
The shares of active, inactive and inconclusive entries below differ from those in the screen. A potency beside an inconclusive call is a rough fit, not a confirmed value. Activity calls are given as the source filed them. How the source made its calls: active means hit-call score of the fitted dose curve at least 0.9, where 1 is the maximum; inconclusive means response in the unintended direction; inactive means score below 0.9.

Chains of the proteins cited; added tags and fusions are not shown. Lines headed by an entry give the natural chain unless they say otherwise; changes in a name come on top.
UniProt Q9UNQ0: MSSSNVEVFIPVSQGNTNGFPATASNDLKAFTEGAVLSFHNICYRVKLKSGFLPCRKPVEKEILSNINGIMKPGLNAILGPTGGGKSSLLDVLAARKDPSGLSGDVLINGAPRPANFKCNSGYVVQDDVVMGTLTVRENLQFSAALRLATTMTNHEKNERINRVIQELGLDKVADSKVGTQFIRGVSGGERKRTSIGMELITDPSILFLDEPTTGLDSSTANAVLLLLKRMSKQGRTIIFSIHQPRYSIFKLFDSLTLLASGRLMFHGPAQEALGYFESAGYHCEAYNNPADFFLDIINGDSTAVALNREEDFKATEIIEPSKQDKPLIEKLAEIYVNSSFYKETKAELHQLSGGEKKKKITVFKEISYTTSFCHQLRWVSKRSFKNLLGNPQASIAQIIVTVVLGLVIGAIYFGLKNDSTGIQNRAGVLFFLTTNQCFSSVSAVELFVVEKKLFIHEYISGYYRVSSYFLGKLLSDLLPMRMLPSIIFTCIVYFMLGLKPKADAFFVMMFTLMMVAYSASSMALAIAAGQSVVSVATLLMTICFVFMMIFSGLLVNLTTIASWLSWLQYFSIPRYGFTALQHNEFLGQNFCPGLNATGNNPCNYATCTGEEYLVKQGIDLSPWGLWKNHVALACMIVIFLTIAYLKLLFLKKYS
UniProt P33261, whole entry, looked up: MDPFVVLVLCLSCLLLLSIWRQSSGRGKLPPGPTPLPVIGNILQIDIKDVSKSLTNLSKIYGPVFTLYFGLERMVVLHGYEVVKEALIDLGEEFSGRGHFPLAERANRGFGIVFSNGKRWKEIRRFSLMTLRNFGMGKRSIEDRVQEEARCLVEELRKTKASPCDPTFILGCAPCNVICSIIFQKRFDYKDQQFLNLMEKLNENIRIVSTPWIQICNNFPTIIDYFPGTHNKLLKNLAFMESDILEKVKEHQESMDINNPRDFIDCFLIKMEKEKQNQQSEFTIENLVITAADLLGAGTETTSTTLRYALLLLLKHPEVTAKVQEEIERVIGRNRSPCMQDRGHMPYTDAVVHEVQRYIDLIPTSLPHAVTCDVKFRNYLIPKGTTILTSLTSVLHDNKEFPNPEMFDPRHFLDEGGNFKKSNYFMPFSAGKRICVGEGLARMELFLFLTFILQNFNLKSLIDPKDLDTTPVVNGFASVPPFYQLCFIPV
UniProt P11712, whole entry, looked up: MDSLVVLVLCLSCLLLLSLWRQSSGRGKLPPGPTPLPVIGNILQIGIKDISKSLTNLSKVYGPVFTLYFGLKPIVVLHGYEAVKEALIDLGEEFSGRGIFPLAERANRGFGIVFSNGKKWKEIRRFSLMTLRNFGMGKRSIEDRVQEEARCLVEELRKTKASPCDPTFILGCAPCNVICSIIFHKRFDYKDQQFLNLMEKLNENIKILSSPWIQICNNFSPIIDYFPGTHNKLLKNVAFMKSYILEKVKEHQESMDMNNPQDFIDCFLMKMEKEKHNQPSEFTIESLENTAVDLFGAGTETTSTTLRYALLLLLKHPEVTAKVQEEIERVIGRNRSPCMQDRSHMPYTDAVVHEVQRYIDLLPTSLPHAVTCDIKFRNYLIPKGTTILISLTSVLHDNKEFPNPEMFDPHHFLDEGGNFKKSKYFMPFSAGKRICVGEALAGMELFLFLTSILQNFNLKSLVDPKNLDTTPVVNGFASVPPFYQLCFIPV
UniProt P04406: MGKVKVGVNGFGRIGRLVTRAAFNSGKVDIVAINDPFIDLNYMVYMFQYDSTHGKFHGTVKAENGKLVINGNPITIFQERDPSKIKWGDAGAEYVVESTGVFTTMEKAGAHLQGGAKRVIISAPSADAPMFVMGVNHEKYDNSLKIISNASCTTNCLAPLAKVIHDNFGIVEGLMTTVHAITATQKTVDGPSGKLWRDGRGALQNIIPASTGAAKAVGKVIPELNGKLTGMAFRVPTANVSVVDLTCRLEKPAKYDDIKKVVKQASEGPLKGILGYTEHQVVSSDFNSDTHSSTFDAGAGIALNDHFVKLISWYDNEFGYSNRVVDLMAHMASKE
UniProt P08684, whole entry, looked up: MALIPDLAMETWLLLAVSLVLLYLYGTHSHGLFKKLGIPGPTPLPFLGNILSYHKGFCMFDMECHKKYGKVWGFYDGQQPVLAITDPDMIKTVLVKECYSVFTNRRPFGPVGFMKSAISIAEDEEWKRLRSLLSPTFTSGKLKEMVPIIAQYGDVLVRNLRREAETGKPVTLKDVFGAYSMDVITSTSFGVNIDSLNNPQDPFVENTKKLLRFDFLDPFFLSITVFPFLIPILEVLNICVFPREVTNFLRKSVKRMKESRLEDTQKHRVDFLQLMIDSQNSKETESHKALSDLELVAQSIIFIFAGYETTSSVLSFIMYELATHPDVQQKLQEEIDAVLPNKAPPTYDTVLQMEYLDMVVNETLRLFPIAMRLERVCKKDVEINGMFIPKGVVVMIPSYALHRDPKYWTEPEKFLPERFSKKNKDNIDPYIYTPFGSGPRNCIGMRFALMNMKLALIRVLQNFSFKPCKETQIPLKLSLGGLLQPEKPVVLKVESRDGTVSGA
UniProt P20813: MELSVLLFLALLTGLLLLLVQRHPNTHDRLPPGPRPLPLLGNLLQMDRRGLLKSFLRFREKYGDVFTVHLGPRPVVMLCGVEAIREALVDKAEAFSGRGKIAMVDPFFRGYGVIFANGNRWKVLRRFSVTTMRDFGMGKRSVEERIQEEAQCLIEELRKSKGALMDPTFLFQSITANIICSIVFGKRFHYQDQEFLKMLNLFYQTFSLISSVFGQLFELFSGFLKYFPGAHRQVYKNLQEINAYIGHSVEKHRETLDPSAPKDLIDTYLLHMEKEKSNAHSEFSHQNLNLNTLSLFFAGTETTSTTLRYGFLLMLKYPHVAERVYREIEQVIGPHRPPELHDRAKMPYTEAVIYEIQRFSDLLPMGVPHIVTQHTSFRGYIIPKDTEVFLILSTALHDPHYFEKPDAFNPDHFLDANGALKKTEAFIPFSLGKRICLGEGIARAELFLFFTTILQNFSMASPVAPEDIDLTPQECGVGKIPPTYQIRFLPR

How the values were obtained:
[1] = read-out: Broad substrate specificity ATP-binding cassette transporter ABCG2 (Homo sapiens) (UniProt Q9UNQ0); assay: CLD_ABCG2_24hr: CellzDirect (CLD) Gene Expression Assay for ABC Transporter (ABCG2) at 24 hours (AID 2283685);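 on AC50: AC50 is for induction meaning signal gain over DMSO vehicle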
Outline: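 Primary human hepatocytes were dosed daily with ToxCast chemicals at multiple concentrations (vehicle 0.2% DMSO). ABCG2 mRNA was measured at 24 h by qNPA chemiluminescence; induction was scored as gain of signal versus DMSO.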

[2] = read-out: Cytochrome P450 2C19 (Homo sapiens) (UniProt P33261); assay: CLD_CYP2C19_24hr: CellzDirect (CLD) Gene Expression Assay for xenobiotic metabolism (CYP2C19) at 24 hours (AID 2283687)
Outline: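 Primary human hepatocytes (two donor preparations) dosed daily with fresh test chemical in 0.2% DMSO vehicle; CYP2C19 mRNA induction measured at 24 h by quantitative nuclease protection assay with chemiluminescence, fitted for gain of signal versus DMSO.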

[3] = read-out: Cytochrome P450 2C9 (Homo sapiens) (UniProt P11712); assay: CLD_CYP2C9_24hr: CellzDirect (CLD) Gene Expression Assay for xenobiotic metabolism (CYP2C9) at 24 hours (AID 2283688);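 on AC50: potency for induction meaning a rise in CYP2C9 mRNA over DMSO vehicle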
Outline: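 Primary human hepatocytes from two donor preparations, dosed daily for two days at multiple concentrations; vehicle 0.2% DMSO. CYP2C9 mRNA induction at 24 h measured by qNPA chemiluminescence relative to DMSO; cytotoxicity annotated from morphology.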

[4] = read-out: organic anion transporter (SLCO1B1), SLCO1B1 (gene 10599); assay: CLD_SLCO1B1_24hr: CellzDirect (CLD) Gene Expression Assay for organic anion transporter (SLCO1B1) at 24 hours (AID 2283690)
Outline: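 Primary human hepatocytes (two donor preparations) dosed daily for two days with chemicals at multiple concentrations, 0.2% DMSO vehicle. SLCO1B1 mRNA at 24 h measured by qNPA chemiluminescence; induction fitted relative to DMSO.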

[5] = read-out: HMG-CoA synthase (HMGCS2), HMGCS2 (gene 3158); assay: CLD_HMGCS2_24hr: CellzDirect (CLD) Gene Expression Assay for HMG-CoA synthase (HMGCS2) at 24 hours (AID 2283691)
Outline: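 Primary human hepatocytes from two donor preparations, dosed daily with fresh solutions; vehicle 0.2% DMSO, 24 h harvest. HMGCS2 mRNA quantified by qNPA with S1 nuclease digestion and chemiluminescence; gain fitted versus DMSO, cytotoxicity annotated by morphology.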

[6] = read-out: ABC Transporter (ABCB11), ABCB11 (gene 8647); assay: CLD_ABCB11_48hr: CellzDirect (CLD) Gene Expression Assay for ABC Transporter (ABCB11) at 48 hours (AID 2283697)
Outline: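 Primary human hepatocytes from two donor preparations dosed daily for two days at multiple concentrations; 0.2% DMSO vehicle. ABCB11 mRNA at 48 h by quantitative nuclease protection assay, chemiluminescence; fitted for induction versus DMSO.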

[7] = read-out: Cytochrome P450 2C19 (Homo sapiens) (UniProt P33261); assay: CLD_CYP2C19_48hr: CellzDirect (CLD) Gene Expression Assay for xenobiotic metabolism (CYP2C19) at 48 hours (AID 2283700)
Outline: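 Primary human hepatocytes (two donor preparations) dosed daily for two days, harvested at 48 h; CYP2C19 mRNA induction measured by qNPA chemiluminescence. Gain-of-signal fitted relative to 0.2% DMSO vehicle as baseline.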

[8] = CLD_ACTIN_48hr: CellzDirect (CLD) Gene Expression Assay for Baseline Control (Actin) at 48 hours (AID 2283702)
Outline: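 Primary human hepatocytes (two donor preparations) dosed daily for two days with ToxCast chemicals at multiple concentrations versus 0.2% DMSO vehicle; harvested at 48 h. Actin mRNA measured as a background control by quantitative nuclease protection assay with chemiluminescence.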

[9] = read-out: Glyceraldehyde-3-phosphate dehydrogenase (Homo sapiens) (UniProt P04406); assay: CLD_GAPDH_48hr: CellzDirect (CLD) Gene Expression Assay for Baseline Control (Glyceraldehyde 3-phosphate dehydrogenase) at 48 hours (AID 2283706)
Outline: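 Primary human hepatocytes dosed daily for two days with fresh chemical at multiple concentrations, 0.2% DMSO vehicle; GAPDH mRNA measured at 48 h by quantitative nuclease protection assay with chemiluminescence, fitted upward relative to DMSO as background control.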

[10] = read-out: organic anion transporter (SLCO1B1), SLCO1B1 (gene 10599); assay: CLD_SLCO1B1_48hr: CellzDirect (CLD) Gene Expression Assay for organic anion transporter (SLCO1B1) at 48 hours (AID 2283707)
Outline: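 Primary human hepatocytes from two donor preparations dosed daily for two days with multiple concentrations, 0.2% DMSO vehicle. SLCO1B1 mRNA at 48 h by quantitative nuclease protection assay, chemiluminescence; gain-of-signal fitted versus DMSO.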

[11] = read-out: Cytochrome P450 3A4 (Homo sapiens) (UniProt P08684); assay: CLD_CYP3A4_24hr: CellzDirect (CLD) Gene Expression Assay for xenobiotic metabolism (CYP3A4) at 24 hours (AID 2283689)
Outline: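 Primary human hepatocytes from two donors dosed daily with fresh compound for two days, 0.2% DMSO vehicle. CYP3A4 mRNA at 24 hr by qNPA chemiluminescence; gain-of-signal fit versus DMSO, cytotoxicity flagged by morphology.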

[12] = read-out: alkyl and aryl transferase (GSTA2), GSTA2 (gene 2939); assay: CLD_GSTA2_24hr: CellzDirect (CLD) Gene Expression Assay for alkyl and aryl transferase (GSTA2) at 24 hours (AID 2283693)
Outline: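 Primary human hepatocytes (two donor preparations) dosed daily for two days with chemicals at multiple concentrations (vehicle 0.2% DMSO); GSTA2 mRNA at 24 h measured by qNPA chemiluminescence, gain-of-signal versus DMSO.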

[13] = read-out: sulfotransferase (SULT2A), SULT2A1 (gene 6822); assay: CLD_SULT2A_24hr: CellzDirect (CLD) Gene Expression Assay for sulfotransferase (SULT2A) at 24 hours (AID 2283694);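 further: potency for increased SULT2A1 mRNA level as induction over DMSO baseline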
Outline: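 Primary human hepatocytes from two donor preparations were dosed daily with fresh solutions, vehicle 0.2% DMSO. At 24 h, lysates went to quantitative nuclease protection (qNPA) with S1 digestion and chemiluminescent readout. Cytotoxicity was annotated from phase-contrast morphology.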

[14] = read-out: ABC Transporter (ABCB1), ABCB1 (gene 5243); assay: CLD_ABCB1_48hr: CellzDirect (CLD) Gene Expression Assay for ABC Transporter (ABCB1) at 48 hours (AID 2283695);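 on AC50: potency for induction meaning increase of mRNA over DMSO vehicle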
Outline: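 Primary human hepatocytes from two donor preparations dosed daily on two consecutive days with 0.2% DMSO vehicle. Harvest at 48 h. ABCB1 mRNA quantified by qNPA with chemiluminescence and fitted for gain of signal versus DMSO.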

[15] = read-out: Broad substrate specificity ATP-binding cassette transporter ABCG2 (Homo sapiens) (UniProt Q9UNQ0); assay: CLD_ABCG2_48hr: CellzDirect (CLD) Gene Expression Assay for ABC Transporter (ABCG2) at 48 hours (AID 2283704);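 on AC50: potency for induction of ABCG2 mRNA above the DMSO baseline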
Outline: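 Primary human hepatocytes from two donors, dosed daily for 2 days, 0.2% DMSO vehicle, several concentrations. ABCG2 mRNA at 48 h by qNPA chemiluminescence, gain fitted versus DMSO; cytotoxicity flagged by morphology.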

[16] = read-out: xenobiotic metabolism (CYP1A1), CYP1A1 (gene 1543); assay: CLD_CYP1A1_48hr: CellzDirect (CLD) Gene Expression Assay for xenobiotic metabolism (CYP1A1) at 48 hours (AID 2283705)
Outline: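 Primary human hepatocytes from two donors dosed daily for two days at multiple concentrations, 0.2% DMSO vehicle; CYP1A1 mRNA induction at 48 h by qNPA chemiluminescence. Cytotoxicity noted by phase-contrast morphology.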

[17] = read-out: alkyl and aryl transferase (GSTA2), GSTA2 (gene 2939); assay: CLD_GSTA2_48hr: CellzDirect (CLD) Gene Expression Assay for alkyl and aryl transferase (GSTA2) at 48 hours (AID 2283708);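 further: active means mRNA induction above DMSO vehicle baseline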
Outline: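 Primary human hepatocytes dosed daily for two days (0.2% DMSO vehicle), harvested at 48 h. GSTA2 mRNA induction measured by quantitative nuclease protection assay with chemiluminescent imaging, fitted for gain of signal relative to DMSO.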

[18] = read-out: Glyceraldehyde-3-phosphate dehydrogenase (Homo sapiens) (UniProt P04406); assay: CLD_GAPDH_24hr: CellzDirect (CLD) Gene Expression Assay for Baseline Control (Glyceraldehyde 3-phosphate dehydrogenase) at 24 hours (AID 2283692)
Outline: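 Primary human hepatocytes (two donor preparations) dosed daily for two days, 0.2% DMSO vehicle; GAPDH mRNA measured at 24 h by qNPA chemiluminescence as a background control, gain-of-signal fitted against DMSO.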

[19] = read-out: Cytochrome P450 2B6 (Homo sapiens) (UniProt P20813); assay: CLD_CYP2B6_48hr: CellzDirect (CLD) Gene Expression Assay for xenobiotic metabolism (CYP2B6) at 48 hours (AID 2283699);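 further: actives raise transcript level above DMSO so potency reflects induction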
Outline: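 Primary human hepatocytes dosed daily for two days over multiple concentrations, 0.2% DMSO vehicle; CYP2B6 mRNA quantified at 48 h by qNPA chemiluminescence. Induction fitted as gain of signal versus DMSO; cytotoxicity annotated by morphology.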

Measured: AC50

COP(=S)(OC)SCn1nnc2ccccc2c1=O
inconclusive: [2] 20 µM | [4] 20 µM | [5] 0.336 µM | [7] 3.62 µM | [8] 20 µM | [9] 12.9 µM
inactive: [1] | [3] | [6] | [10]

CCC(=NOC/C=C/Cl)C1=C(O)CC(C2CCOCC2)CC1=O (configuration not stated)
inactive: [3] | [11] | [14] | [9] | [17]
inconclusive: [1] 2.02 µM | [5] 1.61 µM | [12] 20 µM | [13] 20 µM | [7] 20 µM | [8] 1.97 µM | [15] 20 µM | [16] 0.199 µM

Cc1cc(C2CC2)nc(Nc2ccccc2)n1
inconclusive: [1] 20 µM | [3] 37 µM | [11] 1.89 µM | [5] 20 µM | [18] 20 µM | [12] 30.7 µM | [13] 20 µM | [14] 4.17 µM | [7] 35.2 µM | [8] 20 µM | [9] 3.97 µM | [10] 20 µM

CC1(C)C(C=C(Cl)Cl)C1C(=O)OC(C#N)c1ccc(F)c(Oc2ccccc2)c1 (configuration not stated)
inactive: [3] | [7] | [17]
inconclusive: [1] 0.00356 µM | [4] 20 µM | [18] 20 µM | [12] 0.00681 µM | [14] 0.128 µM | [6] 0.0125 µM | [8] 20 µM | [9] 20 µM | [10] 20 µM

COP(N)(=O)SC (configuration not stated)
inactive: [7] | [8] | [17]
inconclusive: [1] 0.262 µM | [11] 20 µM | [5] 0.121 µM | [12] 0.154 µM | [13] 0.261 µM | [14] 20 µM | [19] 0.000645 µM | [16] 20 µM | [9] 0.0187 µM

COC(=O)C=C(C)OP(=O)(OC)OC
inconclusive: [1] 20 µM | [3] 20 µM | [11] 20 µM | [5] 20 µM | [12] 20 µM | [9] 0.0004 µM
inactive: [6] | [7] | [8] | [16]

COP(=S)(OC)Oc1ccc([N+](=O)[O-])cc1
inconclusive: [5] 0.00282 µM | [12] 20 µM | [7] 20 µM | [8] 11.3 µM | [9] 11.9 µM | [17] 20 µM
inactive: [1] | [3] | [6]

CNC(=O)Oc1cccc(N=CN(C)C)c1
inactive: [5] | [14]
inconclusive: [1] 0.0984 µM | [4] 20 µM | [13] 20 µM | [19] 3.65 µM | [7] 3.97 µM | [10] 0.494 µM

CN(C)C(=S)SSC(=S)N(C)C
active: [16] 29.7 µM
inconclusive: [3] 20 µM | [4] 35.3 µM | [5] 34.3 µM | [13] 20 µM | [14] 20 µM | [7] 31 µM
inactive: [1] | [18] | [8] | [9] | [17]

COP(=O)(OC)OC(Br)C(Cl)(Cl)Br (configuration not stated)
inconclusive: [1] 0.0004 µM | [3] 20 µM | [11] 38.3 µM | [18] 20 µM
inactive: [14] | [8]

Nc1c(Cl)c(F)nc(OCC(=O)O)c1Cl
inactive: [1] | [3] | [11] | [18] | [6] | [15] | [10]
inconclusive: [12] 20 µM | [13] 0.83 µM | [7] 20 µM | [9] 0.000838 µM | [17] 20 µM

CC(C)Oc1cc(-n2nc(C(C)(C)C)oc2=O)c(Cl)cc1Cl
inactive: [1] | [14]
inconclusive: [3] 20 µM | [4] 3.97 µM | [5] 0.818 µM | [18] 6.98 µM | [12] 0.364 µM | [6] 1.03 µM | [7] 3.97 µM | [8] 3.59 µM | [9] 6.01 µM
